Binding data for four molecules are collected here from paper PMC11354755.

By UniProt entry, the sequences of proteins in these tests, tags left out.
UniProt P39081: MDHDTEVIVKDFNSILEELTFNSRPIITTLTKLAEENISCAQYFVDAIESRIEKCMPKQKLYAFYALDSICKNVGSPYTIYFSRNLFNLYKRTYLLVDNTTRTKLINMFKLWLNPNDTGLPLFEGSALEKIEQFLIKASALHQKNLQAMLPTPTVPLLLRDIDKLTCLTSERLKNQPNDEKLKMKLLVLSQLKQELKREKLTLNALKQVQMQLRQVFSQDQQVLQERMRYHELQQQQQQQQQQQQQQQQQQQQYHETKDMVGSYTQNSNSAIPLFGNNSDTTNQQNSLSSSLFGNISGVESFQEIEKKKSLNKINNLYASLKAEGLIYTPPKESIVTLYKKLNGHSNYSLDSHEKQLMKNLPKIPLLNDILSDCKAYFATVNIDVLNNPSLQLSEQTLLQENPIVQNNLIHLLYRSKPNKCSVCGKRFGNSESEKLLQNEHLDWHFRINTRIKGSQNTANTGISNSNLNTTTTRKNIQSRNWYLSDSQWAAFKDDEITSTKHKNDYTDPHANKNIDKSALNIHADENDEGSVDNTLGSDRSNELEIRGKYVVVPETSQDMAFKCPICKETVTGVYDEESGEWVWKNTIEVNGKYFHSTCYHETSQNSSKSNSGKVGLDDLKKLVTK

No constants are given. Whether binding was seen depends on the method and setting. In cells and extracts the contact can be indirect. A yes stands for co-enrichment or nearness to the bait. Other partners may have been found.

The chains are these.
T1: TFIIB (wild type) (S. cerevisiae) (UniProt P29055)
T1 sequence: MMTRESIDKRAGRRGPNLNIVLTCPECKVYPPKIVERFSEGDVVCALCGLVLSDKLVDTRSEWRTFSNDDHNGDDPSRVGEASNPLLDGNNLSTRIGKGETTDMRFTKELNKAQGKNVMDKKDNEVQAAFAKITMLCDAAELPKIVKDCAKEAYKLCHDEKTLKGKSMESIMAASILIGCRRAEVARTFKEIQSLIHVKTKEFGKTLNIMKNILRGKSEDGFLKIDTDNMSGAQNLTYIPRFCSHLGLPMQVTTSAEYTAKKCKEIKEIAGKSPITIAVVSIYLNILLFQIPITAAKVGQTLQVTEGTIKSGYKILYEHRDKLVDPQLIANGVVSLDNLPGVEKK

B1: Rna14 (protein, UniProt P25298 1-677)
chain: MSSSTTPDLLYPSADKVAEPSDNIHGDELRLRERIKDNPTNILSYFQLIQYLETQESYAKVREVYEQFHNTFPFYSPAWTLQLKGELARDEFETVEKILAQCLSGKLENNDLSLWSTYLDYIRRKNNLITGGQEARAVIVKAFQLVMQKCAIFEPKSSSFWNEYLNFLEQWKPFNKWEEQQRIDMLREFYKKMLCVPFDNLEKMWNRYTQWEQEINSLTARKFIGELSAEYMKARSLYQEWLNVTNGLKRASPINLRTANKKNIPQPGTSDSNIQQLQIWLNWIKWERENKLMLSEDMLSQRISYVYKQGIQYMIFSAEMWYDYSMYISENSDRQNILYTALLANPDSPSLTFKLSECYELDNDSESVSNCFDKCTQTLLSQYKKIASDVNSGEDNNTEYEQELLYKQREKLTFVFCVYMNTMKRISGLSAARTVFGKCRKLKRILTHDVYVENAYLEFQNQNDYKTAFKVLELGLKYFQNDGVYINKYLDFLIFLNKDSQIKTLFETSVEKVQDLTQLKEIYKKMISYESKFGNLNNVYSLEKRFFERFPQENLIEVFTSRYQIQNSNLIKKLELTYMYNEEEDSYFSSGNGDGHHGSYNMSSSDRKRLMEETGNNGNFSNKKFKRDSELPTEVLDLLSVIPKRQYFNTNLLDAQKLVNFLNDQVEIPTVESTKSG
B2: Rna15 (protein, UniProt P25299 1-296)
chain: MNRQSGVNAGVQNNPPSRVVYLGSIPYDQTEEQILDLCSNVGPVINLKMMFDPQTGRSKGYAFIEFRDLESSASAVRNLNGYQLGSRFLKCGYSSNSDISGVSQQQQQQYNNINGNNNNNGNNNNNSNGPDFQNSGNANFLSQKFPELPSGIDVNINMTTPAMMISSELAKKPKEVQLKFLQKFQEWTRAHPEDAVSLLELCPQLSFVTAELLLTNGICKVDDLIPLASRPQEEASATNNNSVNEVVDPAVLNKQKELLKQVLQLNDSQISILPDDERMAIWDLKQKALRGEFGAF
B3: Clp1 (protein, UniProt Q08685 1-445)
chain: MASLPGIDEHTTSEELITGDNEWHKLVIPKGSDWQIDLKAEGKLIVKVNSGIVEIFGTELAVDDEYTFQNWKFPIYAVEETELLWKCPDLTTNTITVKPNHTMKYIYNLHFMLEKIRMSNFEGPRVVIVGGSQTGKTSLSRTLCSYALKFNAYQPLYINLDPQQPIFTVPGCISATPISDILDAQLPTWGQSLTSGATLLHNKQPMVKNFGLERINENKDLYLECISQLGQVVGQRLHLDPQVRRSGCIVDTPSISQLDENLAELHHIIEKLNVNIMLVLCSETDPLWEKVKKTFGPELGNNNIFFIPKLDGVSAVDDVYKRSLQRTSIREYFYGSLDTALSPYAIGVDYEDLTIWKPSNVFDNEVGRVELFPVTITPSNLQHAIIAITFAERRADQATVIKSPILGFALITEVNEKRRKLRVLLPVPGRLPSKAMILTSYRYLE

The test concerns the target T1, TFIIB (wild type) (S. cerevisiae). As to the kind of experiment: affinity purification with mass spectrometry; TFIIB affinity purified from chromatin and soluble fractions of S. cerevisiae TFIIB^WT and TFIIB^sua7-1 (sua7-1-HA, WA158) cells; quantitative proteomics, TFIIB-normalized spectral abundance factor (BNSAF); four replicates.
On to Pcf11 (from UniProt P39081 1-626), for which the binding result was “binds”.

For B1, the binding result is “binds”.

Regarding B2, the binding entry is listed as “binds”.

For the molecule B3, the binding result is “binds”.
